From article doi:10.1101/2025.07.31.666261 come the findings set out here.

By UniProt entry, the sequences of proteins in these tests, tags left out. Where a name states a change or a piece, a line headed by the entry shows the natural chain unless it says otherwise. Chains listed by the source or under a name are the forms on record and can include a tag or linker. Residues count along the entry.
Gal-9 R65A fused with EGFP, expressed in 293T cells (O00182, form named): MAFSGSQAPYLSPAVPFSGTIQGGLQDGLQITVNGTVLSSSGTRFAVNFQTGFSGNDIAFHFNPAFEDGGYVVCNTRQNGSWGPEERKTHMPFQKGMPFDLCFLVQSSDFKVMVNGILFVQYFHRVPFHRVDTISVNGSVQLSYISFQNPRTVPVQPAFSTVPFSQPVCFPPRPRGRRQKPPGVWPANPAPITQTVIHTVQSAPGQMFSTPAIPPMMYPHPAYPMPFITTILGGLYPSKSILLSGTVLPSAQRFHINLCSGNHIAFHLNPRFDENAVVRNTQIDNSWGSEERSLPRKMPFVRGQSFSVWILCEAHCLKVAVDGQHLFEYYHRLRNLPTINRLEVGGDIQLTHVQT
UniProt P42081, residues 24-247: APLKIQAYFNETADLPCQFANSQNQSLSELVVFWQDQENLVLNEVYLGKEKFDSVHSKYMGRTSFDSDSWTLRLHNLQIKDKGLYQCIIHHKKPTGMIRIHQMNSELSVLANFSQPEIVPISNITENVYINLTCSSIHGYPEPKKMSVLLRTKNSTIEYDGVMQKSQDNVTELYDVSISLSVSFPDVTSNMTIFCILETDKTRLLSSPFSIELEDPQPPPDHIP
UniProt P10747, residues 19-152: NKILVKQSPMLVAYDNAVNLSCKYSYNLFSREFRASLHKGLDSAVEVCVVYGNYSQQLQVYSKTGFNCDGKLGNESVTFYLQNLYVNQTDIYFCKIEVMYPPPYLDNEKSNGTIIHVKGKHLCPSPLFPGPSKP
UniProt Q15116, residues 25-170: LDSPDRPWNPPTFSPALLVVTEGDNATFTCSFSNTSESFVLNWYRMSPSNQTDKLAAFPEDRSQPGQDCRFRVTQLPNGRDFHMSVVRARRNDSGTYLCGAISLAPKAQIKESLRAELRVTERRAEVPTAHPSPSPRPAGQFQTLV
UniProt Q8TDQ0, residues 22-202: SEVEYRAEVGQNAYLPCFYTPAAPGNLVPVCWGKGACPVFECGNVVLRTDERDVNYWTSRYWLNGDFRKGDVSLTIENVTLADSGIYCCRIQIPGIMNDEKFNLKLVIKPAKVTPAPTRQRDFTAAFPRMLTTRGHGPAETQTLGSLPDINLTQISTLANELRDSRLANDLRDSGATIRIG

Assay [1] addresses full-length human Gal-9 fused with EGFP, expressed in 293T cells (human) (UniProt O00182). Briefly: flow cytometry on cells. On the technique in general: In flow cytometry, cells or beads pass a laser one at a time.
The target of assay [2] is Gal-9 R65A fused with EGFP, expressed in 293T cells (human) (UniProt O00182). Briefly: flow cytometry on cells.

These are yes or no findings as the source states them, for the method shown. Some results given as binding are weak or reduced against the parent protein; the word gives no strength. Sequences can lack the tags named with a protein.

As to “human B7-H1-Fc (from UniProt Q9NZQ7-1 19-238) (Fc fusion)”, in assay [1], the binding result is on record as “binds weakly”. Same read-out and setting: for “human B7.1-Fc (from UniProt P33681-1 35-242) (Fc fusion)” the value was “binds”. On the same count and under the same terms, in the case of “human B7.2-Fc (from UniProt P42081-1 24-247) (Fc fusion)” it was “binds”. Take “human CD28-Fc (from UniProt P10747-1 19-152) (Fc fusion)”: the binding entry in assay [2] and in assay [1] was “binds” throughout. Regarding “human PD-1-Fc (from UniProt Q15116 25-170) (Fc fusion)”, in assay [1], the binding result is listed as “binds”. Take “human TIM-3-Fc (from UniProt Q8TDQ0-1 22-202) (Fc fusion)”: the binding result in assay [2] is “binds”.

B1: human B7-H3-Fc (Fc fusion, UniProt Q5ZPR3-2 29-248)
chain: LEVQVPEDPVVALVGTDATLCCSFSPEPGFSLAQLNLIWQLTDTKQLVHSFAEGQDQGSAYANRTALFPDLLAQGNASLRLQRVRVADEGSFTCFVSIRDFGSAAVSLQVAAPYSKPSMTLEPNKDLRPGDTVTITCSSYRGYPEAEVFWQDGQGVPLTGNVTTSQMANEQGLFDVHSVLRVVLGANGTYSCLVRNPVLQQDAHGSVTITGQPMTFPPEA
In the case of B1, the binding entry in assay [1] is listed as “binds weakly”.

B2: human SLAMF1-Fc (Fc fusion, UniProt Q13291-1 21-237)
chain: ASYGTGGRMMNCPKILRQLGSKVLLPLTYERINKSMNKSIHIVVTMAKSLENSVENKIVSLDPSEAGPPRYLGDRYKFYLENLTLGIRESRKEDEGWYLMTLEKNVSVQRFCLQLRLYEQVSTPEIKVLNKTQENGTCTLILGCTVEKGDHVAYSWSEKAGTHPLNPANSSHLLSLTLGPQHADNIYICTVSNPISNNSQTFSPWPGCRTDPSETKP
As for B2, the binding result in assay [2] and in assay [1] was “binds” in each case.

B3: human 2B4-Fc (Fc fusion, UniProt Q9BZW8-2 22-224)
chain: CQGSADHVVSISGVPLQLQPNSIQTKVDSIAWKKLLPSQNGFHHILKWENGSLPSNTSNDRFSFIVKNLSLLIKAAQQQDSGLYCLEVTSISGKVQTATFQVFVFDKVEKPRLQGQGKILDRGRCQVALSCLVSRDGNVSYAWYRGSKLIQTAGNLTYLDEEVDINGTHTYTCNVSNPVSWESHTLNLTQDCQNAHQEFRFWP
Consider B3, for which the binding result in assay [2] and in assay [1] was “binds” throughout.

B4: human B7-DC-Fc (Fc fusion, UniProt Q9BQ51-1 20-220)
chain: LFTVTVPKELYIIEHGSNVTLECNFDTGSHVNLGAITASLQKVENDTSPHRERATLLEEQLPLGKASFHIPQVQVRDEGQYQCIIIYGVAWDYKYLTLKVKASYRKINTHILKVPETDEVELTCQATGYPLAEVSWPNVSVPANTSHSRTPEGLYQVTSVLRLKPPPGRNFSCVFWNTHVRELTLASIDLQSQMEPRTHPT
On to B4, for which the binding entry in assay [1] was “binds”.

B5: human B7-H2-Fc (Fc fusion, UniProt O75144-1 19-256)
chain: DTQEKEVRAMVGSDVELSCACPEGSRFDLNDVYVYWQTSESKTVVTYHIPQNSSLENVDSRYRNRALMSPAGMLRGDFSLRLFNVTPQDEQKFHCLVLSQSLGFQEVLSVEVTLHVAANFSVPVVSAPHSPSQDELTFTCTSINGYPRPNVYWINKTDNSLLDQALQNDTVFLNMRGLYDVVSVLRIARTPSVNIGCCIENVLLQQNLTVGSQTGNDIGERDKITENPVSTGEKNAAT
In the case of B5, the binding result in assay [1] is “binds”.
